The nature of this series: Solubility of the drug substance in water. It counts as physicochemical. From the text:
Sesame oil was selected as an excipient to solubilize the drug substance.

On to `C=C(C)[C@@H]1CCC(C)=C[C@H]1c1c(O)cc(CCCCC)cc1O` [CBD, Cannabidiol], for which the Solubility in water entry is reported as “insoluble in water”.
